Assay results reported in the supplement of paper PMC4604168 (melanoma cell lines).
The other results are listed elsewhere or left out. Many values rest on one well or one pass, so single values are uncertain.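 Cells were imaged in 1,536-well plates, and nuclei stained with an antibody against cleaved PARP were counted against all DNA-stained nuclei to give the apoptosis fraction. Screening doses were chosen to leave most cells alive, and resting and induced cleaved-PARP levels differ strongly between cell lines.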

Key:
Test in all cases: cleaved PARP positive nuclei fraction relative to DMSO control; melanoma cells; higher = more apoptosis
Conditions in all cases: library dose: low library concentration; 72 h
[1] = test system: WM115
[2] = test system: WM1716
[3] = test system: WM1745
[4] = test system: WM3526
[5] = test system: WM3619
[6] = test system: WM451Lu

Row | Compound | cleaved PARP positive nuclei fraction [1] [%] | cleaved PARP positive nuclei fraction [2] [%] | cleaved PARP positive nuclei fraction [3] [%] | cleaved PARP positive nuclei fraction [4] [%] | cleaved PARP positive nuclei fraction [5] [%] | cleaved PARP positive nuclei fraction [6] [%]
1 | COc1ccc(C2=N[C@@H](c3ccc(Cl)cc3)[C@@H](c3ccc(Cl)cc3)N2C(=O)N2CCNC(=O)C2)c(OC(C)C)c1 [Nutlin-3] + Oc1cc(-c2nc(-c3ccccc3)[nH]c2-c2ccncc2)ccc1Cl [L779450] (first compound 0.1 µM, partner dose 0.2 µM) | 99.3 | 96.6 | 125 | 114 | 101 | 47.9
2 | CN(c1ncccc1CNc1nc(Nc2ccc3c(c2)CC(=O)N3)ncc1C(F)(F)F)S(C)(=O)=O + C[C@@H]1CCN(C(=O)CC#N)C[C@@H]1N(C)c1ncnc2[nH]ccc12 [CP690550] (first compound 0.08 µM, partner dose 1 µM) | 143 | 90.8 | 102 | 53.7 | 93.5 | 43.2
3 | CN(c1ncccc1CNc1nc(Nc2ccc3c(c2)CC(=O)N3)ncc1C(F)(F)F)S(C)(=O)=O + Nc1ncn([C@H]2C[C@H](O)[C@@H](CO)O2)c(=O)n1 [decitabine] (first compound 0.08 µM, partner dose 0.1 µM) | 191 | 131 | 128 | 144 | 192 | 76.5
4 | C[C@@H](N)c1ccc(C(=O)Nc2ccnc3[nH]ccc23)cc1 + CO[C@@H]1[C@H](N(C)C(=O)c2ccccc2)C[C@H]2O[C@]1(C)n1c3ccccc3c3c4c(c5c6ccccc6n2c5c31)C(=O)NC4 [Midostaurin] (first compound 0.4 µM, partner dose 0.08 µM) | 86.7 | 247 | 112 | 113 | 127 | 110
5 | CC(=O)O[C@@]12CO[C@@H]1C[C@H](O)[C@@]1(C)C(=O)[C@H](O)C3=C(C)[C@@H](OC(=O)[C@H](O)[C@@H](NC(=O)OC(C)(C)C)c4ccccc4)C[C@@](O)([C@@H](OC(=O)c4ccccc4)[C@H]21)C3(C)C [Docetaxel] + Clc1ccc(Nc2nnc(Cc3ccncc3)c3ccccc23)cc1 [vatalanib] (first compound 0.0001 µM, partner dose 2 µM) | 268 | 136 | 160 | 46.2 | 129 | 57.5
6 | NC(=O)c1ccc(N(C(N)=O)c2c(F)cccc2F)nc1-c1ccc(F)cc1F + NCC(=O)Nc1ccc(-n2nc(C(F)(F)F)cc2-c2ccc3c(ccc4ccccc43)c2)cc1 [OSU03012] (first compound 0.4 µM, partner dose 1 µM) | 136 | 165 | 102 | 90.8 | 101 | 32.9
7 | CCCCCCCCc1ccc(CCC(N)(CO)CO)cc1 [fingolimod] + C#Cc1cccc(Nc2ncnc3cc(OCCOC)c(OCCOC)cc23)c1 [erlotinib] (first compound 2 µM, partner dose 0.8 µM) | 84.1 | 91.3 | 131 | 81.4 | 112 | 165
8 | C[C@@H](N)c1ccc(C(=O)Nc2ccnc3[nH]ccc23)cc1 + Nc1cccc2c1CN(C1CCC(=O)NC1=O)C2=O [lenalidomide] (first compound 0.4 µM, partner dose 1 µM) | 71.5 | 258 | 101 | 49 | 91.2 | 97
9 | CCN(CC)CCNC(=O)c1c(C)[nH]c(/C=C2\C(=O)Nc3ccc(F)cc32)c1C [sunitinib] + O=C(Nc1ccccc1)c1cc([N+](=O)[O-])ccc1Cl [GW9662] (first compound 0.4 µM, partner dose 2 µM) | 46.6 | 46.8 | 108 | 58 | 88.6 | 126
10 | CN(c1ncccc1CNc1nc(Nc2ccc3c(c2)CC(=O)N3)ncc1C(F)(F)F)S(C)(=O)=O + NCC(=O)Nc1ccc(-n2nc(C(F)(F)F)cc2-c2ccc3c(ccc4ccccc43)c2)cc1 [OSU03012] (first compound 0.08 µM, partner dose 1 µM) | 100 | 182 | 141 | 26.1 | 119 | 123
11 | CCCCCCCCc1ccc(CCC(N)(CO)CO)cc1 [fingolimod] + O=C(Nc1cccc(Cl)c1)Nc1ncc(CCNc2ncnc3ccsc23)s1 [SNS314] (first compound 2 µM, partner dose 0.0008 µM) | 141 | 191 | 132 | 59.7 | 109 | 60.9
12 | C[C@@H](N)c1ccc(C(=O)Nc2ccnc3[nH]ccc23)cc1 + Cc1cc([N+](=O)[O-])ccc1NS(=O)(=O)c1cc(Cl)ccc1Cl [FH535] (first compound 0.4 µM, partner dose 1 µM) | 169 | 97.8 | 110 | 63.4 | 82.9 | 94.1
13 | NC1(c2ccc(-c3nc4ccn5c(=O)[nH]nc5c4cc3-c3ccccc3)cc2)CCC1 + OCCn1cc(-c2cnc3nnn(Cc4ccc5ncccc5c4)c3n2)cn1 [PF04217903] (first compound 0.4 µM, partner dose 1 µM) | 232 | 145 | 94.1 | 359 | 99.9 | 24.9
14 | NC(=O)c1ccc(N(C(N)=O)c2c(F)cccc2F)nc1-c1ccc(F)cc1F + O=c1cc(-c2cccc3c2Sc2ccccc2S3)oc(N2CCOCC2)c1 [KU55933] (first compound 0.4 µM, partner dose 1 µM) | 107 | 23.6 | 76.8 | 94.9 | 89.4 | 105
15 | CC(=O)O[C@@]12CO[C@@H]1C[C@H](O)[C@@]1(C)C(=O)[C@H](O)C3=C(C)[C@@H](OC(=O)[C@H](O)[C@@H](NC(=O)OC(C)(C)C)c4ccccc4)C[C@@](O)([C@@H](OC(=O)c4ccccc4)[C@H]21)C3(C)C [Docetaxel] + O=C(Nc1ccccc1)c1cc([N+](=O)[O-])ccc1Cl [GW9662] (first compound 0.0001 µM, partner dose 2 µM) | 281 | 608 | 158 | 160 | 173 | 137
16 | Cn1sc(=O)n(Cc2ccccc2)c1=O + CS(=O)(=O)c1ccc(C(=O)Nc2ccc(Cl)c(-c3ccccn3)c2)c(Cl)c1 [vismodegib] (first compound 0.4 µM, partner dose 1 µM) | 156 | 107 | 99.2 | 37.4 | 85.9 | 288
17 | C[C@]1(O)C[C@@H](c2nc(-c3ccc4ccc(-c5ccccc5)nc4c3)c3c(N)nccn32)C1 + O=C(Nc1cccc(Cl)c1)Nc1ncc(CCNc2ncnc3ccsc23)s1 [SNS314] (first compound 0.4 µM, partner dose 0.0008 µM) | 153 | 60.6 | 120 | 117 | 98.7 | 325
18 | Cn1sc(=O)n(Cc2ccccc2)c1=O + COc1cc(N2CCC(N3CCN(C)CC3)CC2)ccc1Nc1ncc(Cl)c(Nc2ccccc2S(=O)(=O)C(C)C)n1 [NVP-TAE684] (first compound 0.4 µM, partner dose 0.08 µM) | 184 | 89.1 | 89.8 | 70.1 | 80.8 | 459
19 | C[C@]1(O)C[C@@H](c2nc(-c3ccc4ccc(-c5ccccc5)nc4c3)c3c(N)nccn32)C1 + CCN(CC)CCNC(=O)c1c(C)[nH]c(/C=C2\C(=O)Nc3ccc(F)cc32)c1C [sunitinib] (first compound 0.4 µM, partner dose 0.4 µM) | 62.7 | 56.3 | 139 | 173 | 109 | 108
20 | Cn1cnc2c(F)c(Nc3ccc(Br)cc3Cl)c(C(=O)NOCCO)cc21 [selumetinib] + CCCCCCCCc1ccc(CCC(N)(CO)CO)cc1 [fingolimod] (first compound 0.015 µM, partner dose 2 µM) | 198 | 74.4 | 119 | 112 | 122 | 824
21 | C[C@]1(O)C[C@@H](c2nc(-c3ccc4ccc(-c5ccccc5)nc4c3)c3c(N)nccn32)C1 + CC1(C)NC(=O)N(c2ccc([N+](=O)[O-])c(C(F)(F)F)c2)C1=O [nilutamide] (first compound 0.4 µM, partner dose 1 µM) | 74.5 | 84.5 | 107 | 25.8 | 66.7 | 136
22 | CS(=O)(=O)c1ccc(C(=O)Nc2ccc(Cl)c(-c3ccccn3)c2)c(Cl)c1 [vismodegib] + CC(C)CCN1c2nc(Nc3cc(F)c(O)c(F)c3)ncc2N(C)C(=O)C1C [BID1870] (first compound 1 µM, partner dose 0.2 µM) | 60.2 | 197 | 81.6 | 69.5 | 100 | 47.5
23 | CS(=O)(=O)c1ccc(C(=O)Nc2ccc(Cl)c(-c3ccccn3)c2)c(Cl)c1 [vismodegib] + O=c1cc(-c2cccc3c2Sc2ccccc2S3)oc(N2CCOCC2)c1 [KU55933] (first compound 1 µM, partner dose 1 µM) | 93.5 | 31.4 | 85.9 | 62.8 | 89.2 | 138
24 | NC(=O)c1ccc(N(C(N)=O)c2c(F)cccc2F)nc1-c1ccc(F)cc1F + Cc1cc([N+](=O)[O-])ccc1NS(=O)(=O)c1cc(Cl)ccc1Cl [FH535] (first compound 0.4 µM, partner dose 1 µM) | 18.6 | 63.3 | 97.2 | 266 | 75.2 | 35.6
25 | Cn1sc(=O)n(Cc2ccccc2)c1=O + C=CCNC1=C2C[C@@H](C)C[C@H](OC)[C@H](O)[C@@H](C)/C=C(\C)[C@H](OC(N)=O)[C@@H](OC)/C=C\C=C(/C)C(=O)NC(=CC1=O)C2=O [Tanespimycin] (first compound 0.4 µM, partner dose 0.002 µM) | 30.1 | 223 | 103 | 100 | 92.4 | 91.1
26 | NC1(c2ccc(-c3nc4ccn5c(=O)[nH]nc5c4cc3-c3ccccc3)cc2)CCC1 + COc1cc(N2CCC(N3CCN(C)CC3)CC2)ccc1Nc1ncc(Cl)c(Nc2ccccc2S(=O)(=O)C(C)C)n1 [NVP-TAE684] (first compound 0.4 µM, partner dose 0.08 µM) | 85.4 | 226 | 90.5 | 191 | 86.7 | 47.6
27 | COc1ccc(C2=N[C@@H](c3ccc(Cl)cc3)[C@@H](c3ccc(Cl)cc3)N2C(=O)N2CCNC(=O)C2)c(OC(C)C)c1 [Nutlin-3] + OCCn1cc(-c2cnc3nnn(Cc4ccc5ncccc5c4)c3n2)cn1 [PF04217903] (first compound 0.1 µM, partner dose 1 µM) | 69.2 | 109 | 84.4 | 197 | 105 | 51.5
28 | CCCCCCCCc1ccc(CCC(N)(CO)CO)cc1 [fingolimod] + O=C(CCCCCCC(=O)Nc1ccccc1)NO [vorinostat] (first compound 2 µM, partner dose 0.08 µM) | 98.8 | 158 | 101 | 56.8 | 136 | 109
29 | NC1(c2ccc(-c3nc4ccn5c(=O)[nH]nc5c4cc3-c3ccccc3)cc2)CCC1 + OCc1c[nH]c2ccccc12 [Indole-3-carbinol] (first compound 0.4 µM, partner dose 0.8 µM) | 97.5 | 52.9 | 98.9 | 225 | 102 | 94
30 | CCN(CC)CCNC(=O)c1c(C)[nH]c(/C=C2\C(=O)Nc3ccc(F)cc32)c1C [sunitinib] + CC(C)C[C@H](NC(=O)[C@H](Cc1ccccc1)NC(=O)c1cnccn1)B(O)O [Bortezomib] (first compound 0.4 µM, partner dose 0.001 µM) | 67.5 | 97.6 | 98 | 50.5 | 183 | 119

Exported as a markdown table: entries from further up.

| Row | Compound | cleaved PARP positive nuclei fraction [1] [%] | cleaved PARP positive nuclei fraction [2] [%] | cleaved PARP positive nuclei fraction [3] [%] | cleaved PARP positive nuclei fraction [4] [%] | cleaved PARP positive nuclei fraction [5] [%] | cleaved PARP positive nuclei fraction [6] [%] |
| --- | --- | --- | --- | --- | --- | --- | --- |
| 20 | Cn1cnc2c(F)c(Nc3ccc(Br)cc3Cl)c(C(=O)NOCCO)cc21 [selumetinib] + CCCCCCCCc1ccc(CCC(N)(CO)CO)cc1 [fingolimod] (first compound 0.015 µM, partner dose 2 µM) | 198 | 74.4 | 119 | 112 | 122 | 824 |
| 21 | C[C@]1(O)C[C@@H](c2nc(-c3ccc4ccc(-c5ccccc5)nc4c3)c3c(N)nccn32)C1 + CC1(C)NC(=O)N(c2ccc([N+](=O)[O-])c(C(F)(F)F)c2)C1=O [nilutamide] (first compound 0.4 µM, partner dose 1 µM) | 74.5 | 84.5 | 107 | 25.8 | 66.7 | 136 |
| 22 | CS(=O)(=O)c1ccc(C(=O)Nc2ccc(Cl)c(-c3ccccn3)c2)c(Cl)c1 [vismodegib] + CC(C)CCN1c2nc(Nc3cc(F)c(O)c(F)c3)ncc2N(C)C(=O)C1C [BID1870] (first compound 1 µM, partner dose 0.2 µM) | 60.2 | 197 | 81.6 | 69.5 | 100 | 47.5 |
| 23 | CS(=O)(=O)c1ccc(C(=O)Nc2ccc(Cl)c(-c3ccccn3)c2)c(Cl)c1 [vismodegib] + O=c1cc(-c2cccc3c2Sc2ccccc2S3)oc(N2CCOCC2)c1 [KU55933] (first compound 1 µM, partner dose 1 µM) | 93.5 | 31.4 | 85.9 | 62.8 | 89.2 | 138 |
| 24 | NC(=O)c1ccc(N(C(N)=O)c2c(F)cccc2F)nc1-c1ccc(F)cc1F + Cc1cc([N+](=O)[O-])ccc1NS(=O)(=O)c1cc(Cl)ccc1Cl [FH535] (first compound 0.4 µM, partner dose 1 µM) | 18.6 | 63.3 | 97.2 | 266 | 75.2 | 35.6 |
| 25 | Cn1sc(=O)n(Cc2ccccc2)c1=O + C=CCNC1=C2C[C@@H](C)C[C@H](OC)[C@H](O)[C@@H](C)/C=C(\C)[C@H](OC(N)=O)[C@@H](OC)/C=C\C=C(/C)C(=O)NC(=CC1=O)C2=O [Tanespimycin] (first compound 0.4 µM, partner dose 0.002 µM) | 30.1 | 223 | 103 | 100 | 92.4 | 91.1 |
